Measured values from PMC5418573.
These are yes or no findings as the source states them, for the method shown. For some of these results: Binding calls can cover weak binding; strength is not graded here.

The chains behind the UniProt entries cited, without tags or fusion partners. Where a name states a change or a piece, a line headed by the entry shows the natural chain unless it says otherwise.
UniProt Q980X5: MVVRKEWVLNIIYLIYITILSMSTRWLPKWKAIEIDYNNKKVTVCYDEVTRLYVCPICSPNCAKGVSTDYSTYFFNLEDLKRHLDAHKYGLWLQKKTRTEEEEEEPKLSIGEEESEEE

Legend:
[1] = biological target: GST-PBP2 (Sulfolobus solfataricus); experiment: pull-down; GST-PBP2 on glutathione sepharose with recombinant PBP1 in the presence of recombinant PolB1; TBST, room temperature; Coomassie staining; both purified
[2] = biological target: MBP fused to the C-terminal tail of PBP1 (MBP-CT) (Sulfolobus solfataricus); experiment: pull-down; MBP fusion protein on Amylose Resin beads with target protein in buffer A (10 mM HEPES pH 7.5, 100 mM NaCl, 1 mM DTT), room temperature 30 min; Coomassie or silver staining; both purified
[3] = biological target: MBP fused to the first 78 amino acids of PBP1 (MBP-PBP1ΔC) (Sulfolobus solfataricus) (UniProt Q980X5); experiment: as above
[4] = biological target: MBP-tagged PBP1 (Sulfolobus solfataricus) (UniProt Q980X5); experiment: as above
[5] = biological target: MBP-tagged PBP2 (Sulfolobus solfataricus); experiment: as above
[6] = biological target: GST-PBP1 (Sulfolobus solfataricus) (UniProt Q980X5); experiment: pull-down; GST-fusion protein on glutathione sepharose (~10 μg) and 10 μg of target in 100 μl TBST (10 mM Tris pH 8, 150 mM NaCl, 0.1% Tween 20), room temperature 30 min; Coomassie staining or western blotting; both purified
[7] = biological target: GST-PBP2 (Sulfolobus solfataricus); experiment: as above

binding [1]: binds | binding [2]: no binding | binding [3]: binds | binding [4]: binds | binding [5]: binds | binding [6]: binds | binding [7]: binds
B1: recombinant PolB1 of Sulfolobus solfataricus (enzyme, UniProt P26811 36-882)
chain: VVRREWLEEAQENKIYFLLQVDYDGKKGKAVCKLFDKETQKIYALYDNTGHKPYFLVDLEPDKVGKIPKIVRDPSFDHIETVSKIDPYTWNKFKLTKIVVRDPLAVRRLRNDVPKAYEAHIKYFNNYMYDIGLIPGMPYVVKNGKLESVYLSLDEKDVEEIKKAFADSDEMTRQMAVDWLPIFETEIPKIKRVAIDIEVYTPVKGRIPDSQKAEFPIISIALAGSDGLKKVLVLNRNDVNEGSVKLDGISVERFNTEYELLGRFFDILLEYPIVLTFNGDDFDLPYIYFRALKLGYFPEEIPIDVAGKDEAKYLAGLHIDLYKFFFNKAVRNYAFEGKYNEYNLDAVAKALLGTSKVKVDTLISFLDVEKLIEYNFRDAEITLQLTTFNNDLTMKLIVLFSRISRLGIEELTRTEISTWVKNLYYWEHRKRNWLIPLKEEILAKSSNIRTSALIKGKGYKGAVVIDPPAGIFFNITVLDFASLYPSIIRTWNLSYETVDIQQCKKPYEVKDETGEVLHIVCMDRPGITAVITGLLRDFRVKIYKKKAKNPNNSEEQKLLYDVVQRAMKVFINATYGVFGAETFPLYAPAVAESVTALGRYVITSTVKKAREEGLTVLYGDTDSLFLLNPPKNSLENIIKWVKTTFNLDLEVDKTYKFVAFSGLKKNYFGVYQDGKVDIKGMLVKKRNTPEFVKKVFNEVKELMISINSPNDVKEIKRKIVDVVKGSYEKLKNKGYNLDELAFKVMLSKPLDAYKKNTPQHVKAALQLRPFGVNVLPRDIIYYVKVRSKDGVKPVQLAKVTEIDAEKYLEALRSTFEQILRAFGVSWDEIAATMSIDSFFSYPSKGNS
